# Publication PMC12456220
# Amino acid sequences for entries named in this document (tags omitted).
# UniProt P29466: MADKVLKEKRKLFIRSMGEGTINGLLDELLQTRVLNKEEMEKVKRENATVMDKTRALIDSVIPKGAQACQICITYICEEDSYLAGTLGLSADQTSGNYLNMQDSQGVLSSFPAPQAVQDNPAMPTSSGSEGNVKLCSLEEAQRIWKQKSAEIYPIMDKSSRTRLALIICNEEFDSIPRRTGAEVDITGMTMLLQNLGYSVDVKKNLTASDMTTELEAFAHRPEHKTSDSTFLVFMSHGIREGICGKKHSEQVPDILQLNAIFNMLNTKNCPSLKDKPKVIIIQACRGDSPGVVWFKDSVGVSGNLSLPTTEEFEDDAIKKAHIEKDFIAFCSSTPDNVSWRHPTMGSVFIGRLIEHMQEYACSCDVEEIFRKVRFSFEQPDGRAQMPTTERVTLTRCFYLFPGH
# UniProt Q7Z434: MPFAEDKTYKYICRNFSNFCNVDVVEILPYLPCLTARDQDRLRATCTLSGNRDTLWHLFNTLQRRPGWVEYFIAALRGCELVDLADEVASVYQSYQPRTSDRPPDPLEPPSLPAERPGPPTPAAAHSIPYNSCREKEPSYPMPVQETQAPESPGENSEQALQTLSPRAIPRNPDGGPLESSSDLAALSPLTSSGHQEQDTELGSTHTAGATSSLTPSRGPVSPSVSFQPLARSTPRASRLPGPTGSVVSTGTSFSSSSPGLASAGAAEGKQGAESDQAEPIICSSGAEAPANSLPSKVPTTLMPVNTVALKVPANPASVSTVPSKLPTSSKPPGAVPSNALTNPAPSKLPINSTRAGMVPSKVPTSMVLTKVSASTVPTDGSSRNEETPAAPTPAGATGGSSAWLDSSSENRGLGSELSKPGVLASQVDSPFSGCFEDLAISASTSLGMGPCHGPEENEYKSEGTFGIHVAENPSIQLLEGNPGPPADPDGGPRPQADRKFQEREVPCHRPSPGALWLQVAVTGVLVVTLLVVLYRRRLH
# No constants are given. Whether binding was seen depends on the method and setting. In cells and extracts the contact can be indirect. Some entries that bind do so weakly or less than the wild type.
# Biological target: Flag-Caspase-1 (human Caspase-1) (human) (UniProt P29466)
# Experiment: co-IP
substance,measurement,value
H-Myc-MAVS (human MAVS) (from UniProt Q7Z434 1-540),binding,binds
